Data as given in the supplement of paper PMC12067093, “Discovery and optimisation of a covalent ligand for TRIM25 and its application to targeted protein ubiquitination” (Chemical Science, 2025).
The list shows a part of the results.

By UniProt entry, the sequences of proteins in these tests, tags left out. Where a name states a change or a piece, a line headed by the entry shows the natural chain unless it says otherwise.
UniProt O75164: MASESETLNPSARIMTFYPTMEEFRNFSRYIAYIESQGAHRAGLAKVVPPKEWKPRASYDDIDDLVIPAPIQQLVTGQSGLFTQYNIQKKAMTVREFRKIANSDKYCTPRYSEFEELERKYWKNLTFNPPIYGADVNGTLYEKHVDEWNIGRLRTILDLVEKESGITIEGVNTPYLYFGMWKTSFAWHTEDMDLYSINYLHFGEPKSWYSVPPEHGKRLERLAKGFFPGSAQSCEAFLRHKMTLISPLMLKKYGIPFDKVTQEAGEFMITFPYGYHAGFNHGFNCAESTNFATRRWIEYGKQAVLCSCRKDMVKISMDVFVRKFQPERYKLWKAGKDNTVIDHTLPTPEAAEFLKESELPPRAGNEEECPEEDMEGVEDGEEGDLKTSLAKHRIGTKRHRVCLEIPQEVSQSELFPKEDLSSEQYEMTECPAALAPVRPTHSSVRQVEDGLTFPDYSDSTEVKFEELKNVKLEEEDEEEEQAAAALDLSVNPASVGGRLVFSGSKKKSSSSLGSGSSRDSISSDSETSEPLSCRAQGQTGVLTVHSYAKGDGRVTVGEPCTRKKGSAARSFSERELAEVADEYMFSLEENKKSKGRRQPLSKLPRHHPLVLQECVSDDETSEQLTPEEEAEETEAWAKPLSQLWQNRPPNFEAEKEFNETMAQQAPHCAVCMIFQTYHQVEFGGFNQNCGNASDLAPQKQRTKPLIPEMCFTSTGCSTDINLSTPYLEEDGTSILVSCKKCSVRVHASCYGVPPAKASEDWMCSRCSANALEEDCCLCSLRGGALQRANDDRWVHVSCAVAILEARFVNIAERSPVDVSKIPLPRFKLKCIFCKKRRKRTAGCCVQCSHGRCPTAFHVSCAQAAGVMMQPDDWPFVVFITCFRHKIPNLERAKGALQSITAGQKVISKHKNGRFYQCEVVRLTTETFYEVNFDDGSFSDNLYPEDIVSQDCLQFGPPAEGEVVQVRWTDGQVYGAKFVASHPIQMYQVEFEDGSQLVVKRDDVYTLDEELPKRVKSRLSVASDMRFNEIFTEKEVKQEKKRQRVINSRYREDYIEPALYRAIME
UniProt Q8N9B5, whole entry, looked up: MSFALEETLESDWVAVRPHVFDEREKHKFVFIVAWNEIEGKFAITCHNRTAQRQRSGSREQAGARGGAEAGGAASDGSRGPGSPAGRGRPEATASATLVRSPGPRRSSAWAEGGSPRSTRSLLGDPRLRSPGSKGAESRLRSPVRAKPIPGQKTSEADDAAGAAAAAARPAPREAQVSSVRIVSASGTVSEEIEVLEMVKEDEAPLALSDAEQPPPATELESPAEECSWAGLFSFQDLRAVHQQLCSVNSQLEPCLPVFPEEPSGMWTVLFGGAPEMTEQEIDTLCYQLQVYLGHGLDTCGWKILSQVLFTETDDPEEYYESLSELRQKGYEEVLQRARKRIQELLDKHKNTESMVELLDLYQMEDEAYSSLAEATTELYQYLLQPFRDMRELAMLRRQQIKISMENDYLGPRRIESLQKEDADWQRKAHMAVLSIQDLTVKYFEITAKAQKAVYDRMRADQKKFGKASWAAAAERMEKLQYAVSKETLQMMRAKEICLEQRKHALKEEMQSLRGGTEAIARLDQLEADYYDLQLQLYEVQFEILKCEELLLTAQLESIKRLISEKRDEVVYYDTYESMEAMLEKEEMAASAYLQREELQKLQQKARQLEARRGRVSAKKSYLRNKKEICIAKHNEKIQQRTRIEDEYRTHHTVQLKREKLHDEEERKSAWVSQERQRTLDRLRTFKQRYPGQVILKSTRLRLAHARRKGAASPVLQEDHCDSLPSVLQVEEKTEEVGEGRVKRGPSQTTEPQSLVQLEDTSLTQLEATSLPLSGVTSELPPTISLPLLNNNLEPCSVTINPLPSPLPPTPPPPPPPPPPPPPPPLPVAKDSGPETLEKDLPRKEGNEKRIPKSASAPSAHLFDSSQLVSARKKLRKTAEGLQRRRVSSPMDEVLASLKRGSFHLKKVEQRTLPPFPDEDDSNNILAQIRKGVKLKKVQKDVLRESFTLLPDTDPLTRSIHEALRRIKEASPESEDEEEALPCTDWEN
UniProt P41229: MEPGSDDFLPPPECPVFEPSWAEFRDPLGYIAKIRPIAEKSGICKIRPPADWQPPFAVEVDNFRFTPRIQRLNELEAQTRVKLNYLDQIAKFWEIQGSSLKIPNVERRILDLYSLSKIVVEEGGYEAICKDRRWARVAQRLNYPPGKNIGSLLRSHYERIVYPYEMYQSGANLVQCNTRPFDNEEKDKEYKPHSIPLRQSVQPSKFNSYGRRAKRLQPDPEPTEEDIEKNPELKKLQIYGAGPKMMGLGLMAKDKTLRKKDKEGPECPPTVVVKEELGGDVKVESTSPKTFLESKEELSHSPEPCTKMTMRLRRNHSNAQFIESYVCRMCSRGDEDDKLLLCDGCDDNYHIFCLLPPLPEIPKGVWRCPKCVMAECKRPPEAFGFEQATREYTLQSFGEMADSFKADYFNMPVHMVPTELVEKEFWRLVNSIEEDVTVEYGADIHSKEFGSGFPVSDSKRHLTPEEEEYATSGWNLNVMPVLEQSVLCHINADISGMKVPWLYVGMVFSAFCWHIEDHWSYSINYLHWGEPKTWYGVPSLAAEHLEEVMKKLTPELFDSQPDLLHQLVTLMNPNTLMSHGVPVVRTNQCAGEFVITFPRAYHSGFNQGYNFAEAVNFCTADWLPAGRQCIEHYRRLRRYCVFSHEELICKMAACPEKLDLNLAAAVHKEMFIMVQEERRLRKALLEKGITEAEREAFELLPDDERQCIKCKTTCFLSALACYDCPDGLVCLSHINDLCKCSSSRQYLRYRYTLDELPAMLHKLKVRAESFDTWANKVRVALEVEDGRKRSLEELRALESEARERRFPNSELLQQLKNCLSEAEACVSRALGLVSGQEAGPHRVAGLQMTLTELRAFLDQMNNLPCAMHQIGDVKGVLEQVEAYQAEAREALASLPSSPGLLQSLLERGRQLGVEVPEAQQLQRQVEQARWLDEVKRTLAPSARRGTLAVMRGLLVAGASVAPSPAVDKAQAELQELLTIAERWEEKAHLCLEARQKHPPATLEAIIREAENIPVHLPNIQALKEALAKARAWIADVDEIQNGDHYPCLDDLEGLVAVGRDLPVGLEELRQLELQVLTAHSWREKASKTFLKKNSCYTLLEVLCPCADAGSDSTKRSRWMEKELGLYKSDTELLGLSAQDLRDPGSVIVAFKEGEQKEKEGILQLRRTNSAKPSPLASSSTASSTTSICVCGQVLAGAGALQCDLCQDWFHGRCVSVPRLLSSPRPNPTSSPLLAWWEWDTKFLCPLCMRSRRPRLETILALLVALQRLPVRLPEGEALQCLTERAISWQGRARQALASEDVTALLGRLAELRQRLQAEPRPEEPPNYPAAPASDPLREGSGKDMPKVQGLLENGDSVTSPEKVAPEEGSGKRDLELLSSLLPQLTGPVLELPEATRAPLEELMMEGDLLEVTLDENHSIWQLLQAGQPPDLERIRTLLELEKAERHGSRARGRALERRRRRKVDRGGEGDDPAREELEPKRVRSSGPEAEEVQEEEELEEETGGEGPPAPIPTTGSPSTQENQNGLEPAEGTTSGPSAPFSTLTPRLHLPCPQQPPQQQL
UniProt P29375: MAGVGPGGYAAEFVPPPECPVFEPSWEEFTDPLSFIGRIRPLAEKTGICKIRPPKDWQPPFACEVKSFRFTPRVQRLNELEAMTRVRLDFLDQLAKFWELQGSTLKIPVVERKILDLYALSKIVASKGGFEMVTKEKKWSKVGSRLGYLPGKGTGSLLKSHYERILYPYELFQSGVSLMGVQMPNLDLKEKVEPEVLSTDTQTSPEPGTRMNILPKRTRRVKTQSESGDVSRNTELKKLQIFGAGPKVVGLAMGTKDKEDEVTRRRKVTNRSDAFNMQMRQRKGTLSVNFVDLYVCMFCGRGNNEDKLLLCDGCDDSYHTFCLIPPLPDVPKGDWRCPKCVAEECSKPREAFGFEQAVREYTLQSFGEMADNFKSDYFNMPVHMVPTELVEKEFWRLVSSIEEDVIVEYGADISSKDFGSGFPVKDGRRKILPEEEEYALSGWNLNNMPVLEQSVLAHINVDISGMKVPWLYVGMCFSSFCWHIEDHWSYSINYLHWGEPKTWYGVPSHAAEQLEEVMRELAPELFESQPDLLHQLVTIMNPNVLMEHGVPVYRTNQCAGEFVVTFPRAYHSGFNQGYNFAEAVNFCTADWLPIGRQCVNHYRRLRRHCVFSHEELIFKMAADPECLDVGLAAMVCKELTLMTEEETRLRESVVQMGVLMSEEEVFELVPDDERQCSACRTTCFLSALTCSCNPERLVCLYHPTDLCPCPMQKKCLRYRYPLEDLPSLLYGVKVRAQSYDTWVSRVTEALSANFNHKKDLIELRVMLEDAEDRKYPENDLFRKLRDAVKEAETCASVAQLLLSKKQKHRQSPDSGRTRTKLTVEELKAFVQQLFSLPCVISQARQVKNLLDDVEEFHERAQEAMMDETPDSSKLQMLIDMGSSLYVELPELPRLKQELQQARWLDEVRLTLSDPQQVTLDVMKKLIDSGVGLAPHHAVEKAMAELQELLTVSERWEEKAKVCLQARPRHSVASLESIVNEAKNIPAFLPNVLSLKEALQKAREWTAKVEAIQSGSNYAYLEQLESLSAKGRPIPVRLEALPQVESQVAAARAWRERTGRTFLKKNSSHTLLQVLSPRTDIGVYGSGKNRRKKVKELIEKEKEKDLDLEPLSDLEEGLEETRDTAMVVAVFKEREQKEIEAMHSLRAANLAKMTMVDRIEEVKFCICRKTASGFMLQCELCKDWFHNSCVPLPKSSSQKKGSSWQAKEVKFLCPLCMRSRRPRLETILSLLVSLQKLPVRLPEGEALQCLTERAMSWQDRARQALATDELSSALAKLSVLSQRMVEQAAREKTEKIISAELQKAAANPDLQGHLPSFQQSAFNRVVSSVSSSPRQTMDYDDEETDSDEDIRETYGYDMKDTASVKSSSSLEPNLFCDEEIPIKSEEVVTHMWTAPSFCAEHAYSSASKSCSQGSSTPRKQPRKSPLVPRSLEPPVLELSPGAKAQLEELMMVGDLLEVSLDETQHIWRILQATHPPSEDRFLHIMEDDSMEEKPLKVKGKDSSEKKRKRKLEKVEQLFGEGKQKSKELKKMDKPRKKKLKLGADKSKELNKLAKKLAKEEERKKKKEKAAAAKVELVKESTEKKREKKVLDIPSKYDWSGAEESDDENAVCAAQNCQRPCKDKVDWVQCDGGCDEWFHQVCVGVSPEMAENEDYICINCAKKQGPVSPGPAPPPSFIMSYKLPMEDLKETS
UniProt Q9Y6Y0: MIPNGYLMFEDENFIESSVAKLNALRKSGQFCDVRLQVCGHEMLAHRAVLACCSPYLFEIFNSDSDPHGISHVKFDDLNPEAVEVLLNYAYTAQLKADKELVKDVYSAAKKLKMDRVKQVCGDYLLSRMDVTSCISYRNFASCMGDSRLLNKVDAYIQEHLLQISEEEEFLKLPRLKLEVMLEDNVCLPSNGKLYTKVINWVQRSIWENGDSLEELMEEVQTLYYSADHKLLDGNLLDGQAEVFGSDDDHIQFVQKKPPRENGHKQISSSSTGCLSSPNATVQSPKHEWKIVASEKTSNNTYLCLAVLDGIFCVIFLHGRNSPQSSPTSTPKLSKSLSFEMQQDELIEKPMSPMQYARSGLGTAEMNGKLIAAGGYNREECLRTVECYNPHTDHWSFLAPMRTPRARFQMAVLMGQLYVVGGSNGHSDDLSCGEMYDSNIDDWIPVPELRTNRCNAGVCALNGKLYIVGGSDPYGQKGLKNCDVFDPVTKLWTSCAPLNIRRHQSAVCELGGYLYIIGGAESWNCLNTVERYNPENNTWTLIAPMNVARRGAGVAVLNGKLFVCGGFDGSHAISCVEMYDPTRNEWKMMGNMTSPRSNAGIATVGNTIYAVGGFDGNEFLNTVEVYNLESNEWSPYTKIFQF
UniProt Q8IY47: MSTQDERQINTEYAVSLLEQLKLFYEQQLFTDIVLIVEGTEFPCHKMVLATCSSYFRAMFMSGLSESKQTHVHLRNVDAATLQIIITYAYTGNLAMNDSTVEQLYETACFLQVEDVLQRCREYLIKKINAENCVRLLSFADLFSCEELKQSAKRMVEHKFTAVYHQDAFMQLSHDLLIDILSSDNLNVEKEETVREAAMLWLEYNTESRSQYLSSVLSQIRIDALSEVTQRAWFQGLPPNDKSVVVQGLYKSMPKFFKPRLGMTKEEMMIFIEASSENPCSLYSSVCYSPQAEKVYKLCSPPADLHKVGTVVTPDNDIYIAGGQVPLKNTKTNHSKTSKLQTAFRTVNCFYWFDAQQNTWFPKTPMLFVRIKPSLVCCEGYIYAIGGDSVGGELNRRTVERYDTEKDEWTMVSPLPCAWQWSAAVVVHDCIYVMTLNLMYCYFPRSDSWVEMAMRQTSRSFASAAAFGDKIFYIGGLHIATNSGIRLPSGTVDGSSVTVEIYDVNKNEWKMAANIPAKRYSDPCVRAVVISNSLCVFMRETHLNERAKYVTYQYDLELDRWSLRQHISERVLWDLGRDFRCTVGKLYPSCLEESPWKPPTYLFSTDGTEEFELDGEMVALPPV

Compound: Cc1cc(ccc1-c1ccccc1)C(=O)N1CCCN(CC1)C(=O)CCl [compound 10]
Experiment: probe-labelled cysteine peptide fold change vs DMSO (competition) (log2 fold change); higher = less target engagement (more negative = stronger competition)
Conditions: THP-1, incubation time: 4 h
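Further: competitive profiling in live THP-1 cells: cysteine peptides tagged with an iodoacetamide desthiobiotin (IA-DTB) probe, intensity after compound treatment relative to DMSO-treated cells.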

Target | probe-labelled cysteine peptide fold change (10 µM) | probe-labelled cysteine peptide fold change (50 µM)
KAT7_O95251_474_NSFLNYNVSCILTMPQYMR (UniProt O95251) | 0.152 | 0.309
KDM3A_Q9Y4C1_1009_EFGEQEVDLVNCR (UniProt Q9Y4C1) | 0.0163 | -0.0908
KIF22_Q14807_201_VLDLLDPASGDLVIREDCR (UniProt Q14807) | -0.209 | -0.539
KDM3B_Q7LBC6_569_QSLESLSSGLCK (UniProt Q7LBC6) | -0.273 | -0.616
ITSN2_Q9NZM3_907_AQALCSWTAK (UniProt Q9NZM3) | -0.295 | -0.181
KDM4A_O75164_798_ANDDRWVHVSCAVAILEAR (UniProt O75164) | 0.175 | -0.15
KIF11_P52732_704_QCGNLTEDLK (UniProt P52732) | 0.0939 | 0.172
JMY_Q8N9B5_547_CEELLLTAQLESIKR (UniProt Q8N9B5) | 0.107 | 0.0065
KDM4A_O75164_533_DSISSDSETSEPLSCR (UniProt O75164) | -0.287 | -0.622
KDM5C_P41229_707_GITEAEREAFELLPDDERQCIK (UniProt P41229) | 0.0451 | -0.369
KDM5C_P41229_267_EGPECPPTVVVK (UniProt P41229) | -0.2 | 0.0842
KDM1A_O60341_665_VVLCFDR (UniProt O60341) | 0.109 | 0.607
KIF14_Q15058_1418_AASVQEEFMDAVCDGVGLGMK (UniProt Q15058) | 0.145 | 0.156
JMJD1C_Q15652_990_DCHLHR (UniProt Q15652) | -0.57 | -0.573
ITPR1_Q14643_2224_TMEQIVFPVPSICEFLTK (UniProt Q14643) | 0.243 | 0.0547
KDM5A_P29375_709_LVCLYHPTDLCPCPMQK (UniProt P29375) | 0.0981 | -0.145
ITPR3_Q14573_1387_CTSLLPLEDVVSVVTHEDCITEVK (UniProt Q14573) | 0.223 | 0.104
KANK2_Q63ZY3_761+780_ALLACEADVNVQDDDGSTALMCACEHGHK (UniProt Q63ZY3) | -0.0602 | -0.142
KIF11_P52732_25_CRPFNLAER (UniProt P52732) | 0.108 | -0.0649
KIF1B_O60333_581_EEHCIFR (UniProt O60333) | 0.279 | 0.225
IVNS1ABP_Q9Y6Y0_454_CNAGVCALNGK (UniProt Q9Y6Y0) | -0.193 | -0.382
JMY_Q8N9B5_721_GAASPVLQEDHCDSLPSVLQVEEK (UniProt Q8N9B5) | -0.183 | 0.0881
KBTBD2_Q8IY47_145_LLSFADLFSCEELK (UniProt Q8IY47) | -0.201 | -0.143
KDM5A_P29375_838_AFVQQLFSLPCVISQAR (UniProt P29375) | -0.502 | -0.298
KCMF1_Q9P0J7_9+12_HEGVSCDACLK (UniProt Q9P0J7) | -0.0383 | -0.611
JTB_O76095_85_ITCSSSK (UniProt O76095) | -0.38 | -0.208
KIF15_Q9NS87_1284_EMECLR (UniProt Q9NS87) | 0.0325 | 0.0108
IVNS1ABP_Q9Y6Y0_482_NCDVFDPVTK (UniProt Q9Y6Y0) | 0.273 | 0.12
KIF13B_Q9NQT8_870_LVCMVK (UniProt Q9NQT8) | 0.159 | 0.257
KDM3A_Q9Y4C1_497_VDNESCCSR (UniProt Q9Y4C1) | 0.275 | 0.0699
